Laboratory results: US20120178796A1, “SPLICE VARIANTS” (priority 2009, published 2012)

Assay: Protein half-life by time course after cycloheximide inhibition of protein synthesis
Format: cell-based, human
Conditions: after cycloheximide (CHX); HCT116 cells

B1: SIRT1 Δ8: SIRT1 splice variant protein lacking residues 452-637 encoded by exon 8, about 95 kDa (protein)
chain: ADEAALALQPGGSPSAAGADREAASSPAGEPLRKRPRRDGPGLERSPGEPGGAAPEREVPAAARGCPGAAAAALWREAEAEAAAAGGEQEAQATAAAGEGDNGPGLQGPSREPPLADNLYDEDDDDEGEEEEEAAAAAIGYRDNLLFGDEIITNGFHSCESDEEDRASHASSSDWTPRPRIGPYTFVQQHLMIGTDPRTILKDLLPETIPPPELDDMTLWQIVINILSEPPKRKKRKDINTIEDAVKLLQECKKIIVLTGAGVSVSCGIPDFRSRDGIYARLAVDFPDLPDPQAMFDIEYFRKDPRPFFKFAKEIYPGQFQPSLCHKFIALSDKEGKLLRNYTQNIDTLEQVAGIQRIIQCHGSFATASCLICKYKVDCEAVRGDIFNQVVPRCPRCPADEPLAIMKPEIVFFGENLPEQFHRAMKYDKDEVDLLIVIGSSLKVRPVALIPSNQYLFLPPNRYIFHGAEVYSDSEDDVLSSSSCGSNSDSGTCQSPSLEEPMEDESEIEEFYNGLEDEPDVPERAGGAGFGTDGDDQEAINEAISVKQEVTDMNYPSNKS
modifications: left off: small tags and cut ends
notes: SIRT1 splice variant protein lacking residues 452-637 encoded by exon 8, about 95 kDa
protein half-life: around 2 hr
